Source: doi:10.1101/2024.09.06.611148
No constants are given. Whether binding was seen depends on the method and setting. Binding can be weak; no strength is given. Tags and fused reporters may be left off the sequences shown. For part of these data: Binding seen in cells or lysates may run through a third protein. One block for each binder: values may come before it.

Sequences of proteins named here, by UniProt entry; tags and fusion partners are left off. A change or cut given only in a name is not applied to a line headed by its entry.
UniProt Q9FMI8: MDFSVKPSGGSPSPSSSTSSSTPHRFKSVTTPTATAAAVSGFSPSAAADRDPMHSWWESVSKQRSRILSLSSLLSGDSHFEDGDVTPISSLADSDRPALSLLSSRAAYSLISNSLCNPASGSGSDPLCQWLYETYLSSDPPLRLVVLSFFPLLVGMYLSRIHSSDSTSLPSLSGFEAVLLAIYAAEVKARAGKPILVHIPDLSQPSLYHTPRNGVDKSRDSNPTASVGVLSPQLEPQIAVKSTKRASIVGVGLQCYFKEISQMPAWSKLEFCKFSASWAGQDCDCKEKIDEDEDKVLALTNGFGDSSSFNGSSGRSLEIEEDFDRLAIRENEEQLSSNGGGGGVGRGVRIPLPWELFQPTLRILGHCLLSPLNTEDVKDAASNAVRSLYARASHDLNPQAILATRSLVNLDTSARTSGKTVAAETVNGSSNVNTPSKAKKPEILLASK

Tests used:
[1] = target: HYC2 (yeast two-hybrid fusion) (Arabidopsis thaliana) (UniProt Q9FMI8); test: two-hybrid
[2] = target: HYC2-GFP (Arabidopsis thaliana); test: co-IP

binding [1]: binds weakly
B1: SH3 domain-containing protein 2 (yeast two-hybrid fusion) (protein, UniProt Q8VWF1 1-368)
chain: MDAIRKQASRLREQVARQQQAVFKQFGGGGYGSGLADEAELNQHQKLEKLYISTRAAKHYQRDIVRGVEGYIVTGSKQVEIGTKLSEDSRKYGSENTCTNGNVLTRAALNYGRARAQMEKERGNMLKALGTQVAEPLRAMVLGAPLEDARHLAQRYDRMRQEAEAQATEVARRQAKARESQGNPDILMKLESAEAKLHDLKSNMTILGKEAASALASVEDQQQKLTLERLLSMVESERAYHQRVLQILDQLEGEMVSERQRIEAPSTPSSADSMPPPPSYEEANGVFASQMHDTSTDSMGYFLGEVLFPYHGVTDVELSLSTGEYVVVRKVTGSGWAEGECKGKAGWFPYGYIERRERVLASKVSEVF

binding [2]: binds
B2: SH3P2-FLAG (protein, UniProt Q8VWF1 1-368)
chain: B1 chain

binding [2]: binds
B3: DRP1A-FLAG (protein, UniProt P42697 1-610)
chain: MENLISLVNKIQRACTALGDHGDSSALPTLWDSLPAIAVVGGQSSGKSSVLESIVGKDFLPRGSGIVTRRPLVLQLQKIDDGTREYAEFLHLPRKKFTDFAAVRKEIQDETDRETGRSKAISSVPIHLSIYSPNVVNLTLIDLPGLTKVAVDGQSDSIVKDIENMVRSYIEKPNCIILAISPANQDLATSDAIKISREVDPSGDRTFGVLTKIDLMDKGTDAVEILEGRSFKLKYPWVGVVNRSQADINKNVDMIAARKREREYFSNTTEYRHLANKMGSEHLAKMLSKHLERVIKSRIPGIQSLINKTVLELETELSRLGKPIAADAGGKLYSIMEICRLFDQIFKEHLDGVRAGGEKVYNVFDNQLPAALKRLQFDKQLAMDNIRKLVTEADGYQPHLIAPEQGYRRLIESSIVSIRGPAEASVDTVHAILKDLVHKSVNETVELKQYPALRVEVTNAAIESLDKMREGSKKATLQLVDMECSYLTVDFFRKLPQDVEKGGNPTHSIFDRYNDSYLRRIGSNVLSYVNMVCAGLRNSIPKSIVYCQVREAKRSLLDHFFAELGTMDMKRLSSLLNEDPAIMERRSAISKRLELYRAAQSEIDAVAWSK
